Measured values reported in PubChem BioAssay (NCATS).
Inconclusive results, whose numbers are uncertain, are shown with a selection of clear calls. For some assays here: Potencies beside an inconclusive call are fits to weak or partial responses and may not hold up. Active and inactive are the calls of the source. Calls follow the shape of the dose curve; as a rule, active = well fitted curve in the direction sought with a large enough effect; inconclusive = small, poorly fitted or top-dose-only effect, or another doubt; inactive = no such curve, though single readings can be large; an effect the other way counts as inactive or inconclusive.

Columns and labels:
[1] = Quantitative High-Throughput drug screen in 47 multiple myeloma cell lines against the NCATS MIPE library collection: JIM1_ECACC cell viability assay (AID 1918964); conditions: JIM1 myeloma viability, CellTiter-Glo ATP luminescence, 48 h; viability (% of DMSO): at 45.8 µM (top of the series)
Procedure, shortened: (§1)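 Approved and investigational drugs from MIPE 4.0 were added by pin tool to 500 cells per well. After 48 hours at 37C, ATP-based CellTiter-Glo luminescence indicated remaining viability.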

[2] = Quantitative High-Throughput drug screen in 47 multiple myeloma cell lines against the NCATS MIPE library collection: JJN3_DSMZ cell viability assay (AID 1918966; also: nearly all actives have a fitted effect of over 50% in size); conditions: JJN3 myeloma cells viability, CellTiter-Glo ATP, 48 h; series mostly up to 45.8 µM
Procedure, shortened: as §1

[3] = Quantitative High-Throughput drug screen in 47 multiple myeloma cell lines against the NCATS MIPE library collection: KMS27_JCRB cell viability assay (AID 1918970); conditions: KMS27 myeloma cells, CellTiter-Glo ATP viability, 48 h; viability (% of DMSO): at 45.8 µM (top of the series); also: nearly all actives have a fitted effect of over 30% in size
Procedure, shortened: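 Viability inhibition screen, 48 h compound exposure, luminescent ATP read-out.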

[4] = Quantitative High-Throughput drug screen in 47 multiple myeloma cell lines against the NCATS MIPE library collection: KMS12BM_JCRB cell viability assay (AID 1918971); also: nearly all actives have a fitted effect of over 35% in size
Procedure, shortened: (§2)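 Luminescent ATP measurement with CellTiter-Glo gives viability, scaled between DMSO-only wells (100%) and media-only wells (0%). Cells, 500 per well, faced library compounds for 48 hours at 37C.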

[5] = Quantitative High-Throughput drug screen in 47 multiple myeloma cell lines against the NCATS MIPE library collection: KMS20_JCRB cell viability assay (AID 1918973); conditions: CellTiter-Glo ATP, 48 h; viability (% of DMSO): at 45.8 µM (top of the series); also: nearly all actives have a fitted effect of over 45% in size
Procedure, shortened: as §1

[6] = Quantitative High-Throughput drug screen in 47 multiple myeloma cell lines against the NCATS MIPE library collection: KMS26_JCRB cell viability assay (AID 1918975); conditions: KMS26 myeloma cells viability, CellTiter-Glo ATP, 48 h; viability (% of DMSO): at 45.8 µM (top of the series); also: nearly all actives have a fitted effect of over 45% in size
Procedure, shortened: as §2

[7] = Quantitative High-Throughput drug screen in 47 multiple myeloma cell lines against the NCATS MIPE library collection: MMM1_PLB cell viability assay (AID 1918976); also: nearly all actives have a fitted effect of over 35% in size
Procedure, shortened: (§3)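 Cells were exposed to library compounds for 48 hours, after which ATP was measured by CellTiter-Glo. Signal was taken as median relative luminescence units.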

[8] = Quantitative High-Throughput drug screen in 47 multiple myeloma cell lines against the NCATS MIPE library collection: MOLP8_DSMZ cell viability assay (AID 1918977); conditions: MOLP8 myeloma viability, CellTiter-Glo ATP luminescence, 48 h; series mostly up to 45.8 µM; also: nearly all actives have a fitted effect of over 45% in size
Procedure, shortened: as §3

[9] = Quantitative High-Throughput drug screen in 47 multiple myeloma cell lines against the NCATS MIPE library collection: OCIMY1_PLB cell viability assay (AID 1918979); also: nearly all actives have a fitted effect of over 35% in size
Procedure, shortened: as §3

[10] = Quantitative High-Throughput drug screen in 47 multiple myeloma cell lines against the NCATS MIPE library collection: MM1S_ATCC cell viability assay (AID 1918980); also: nearly all actives have a fitted effect of over 45% in size
Procedure, shortened: as §3

[11] = Quantitative High-Throughput drug screen in 47 multiple myeloma cell lines against the NCATS MIPE library collection: MM1R_ATCC cell viability assay (AID 1918981); also: nearly all actives have a fitted effect of over 35% in size
Procedure, shortened: as §3

[12] = Quantitative High-Throughput drug screen in 47 multiple myeloma cell lines against the NCATS MIPE library collection: LP1_DSMZ cell viability assay (AID 1918982); also: nearly all actives have a fitted effect of over 35% in size
Procedure, shortened: as §3

[13] = Quantitative High-Throughput drug screen in 47 multiple myeloma cell lines against the NCATS MIPE library collection: KMS12PE_JCRB cell viability assay (AID 1918972); conditions: KMS12PE myeloma viability, CellTiter-Glo ATP, 48 h; viability: at 45.8 µM (top of the series); also: nearly all actives have a fitted effect of over 30% in size
Procedure, shortened: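 Viability readout: CellTiter-Glo luminescence following 5 min room-temperature incubation with reagent. Prior exposure: 48 h, 37C, humidified 5% CO2, 500 cells per well.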

[14] = Quantitative High-Throughput drug screen in 47 multiple myeloma cell lines against the NCATS MIPE library collection: KMS21BM_JCRB cell viability assay (AID 1918974); conditions: ATP luminescence, 48 h; viability: at 45.8 µM (top of the series) unless noted
Procedure, shortened: as §1

[15] = Quantitative High-Throughput drug screen in 47 multiple myeloma cell lines against the NCATS MIPE library collection: NCIH929_DSMZ cell viability assay (AID 1918978); also: nearly all actives have a fitted effect of over 35% in size
Procedure, shortened: as §3

[16] = Quantitative High-Throughput drug screen in 47 multiple myeloma cell lines against the NCATS MIPE library collection: H1112_PLB cell viability assay (AID 1918967; also: nearly all actives have a fitted effect of over 30% in size); conditions: H1112 myeloma cells viability, ATP luminescence, 48 h; viability: at 45.8 µM (top of the series)
Procedure, shortened: as §1

Measured: Potency
Potency is read from the fitted curve at half-maximal effect.

COc1ccc2c(c1)CC[C@H]1[C@@H]2CC[C@]2(C)[C@@H](NCCCCCCN3C(=O)C=CC3=O)CC[C@H]12
inactive: [5] | [9]
inconclusive: [1] 0.0021 µM [cytotoxic, full curve, poor fit] | [2] 10.5 µM [cytotoxic, partial curve, poor fit] | [3] 0.0148 µM [cytotoxic, full curve, poor fit] | [4] 0.0118 µM [cytotoxic, full curve, poor fit] | [6] 20.9 µM [cytotoxic, single point] | [7] 10.5 µM [cytotoxic, partial curve, poor fit] | [8] 1.48 µM [cytotoxic, full curve, poor fit] | [10] 26.4 µM [cytotoxic, partial curve, poor fit] | [11] 13.2 µM [cytotoxic, partial curve, poor fit] | [12] 16.6 µM [cytotoxic, partial curve, poor fit]

COc1cc2ncnc(-n3nc(-c4ccccn4)nc3N)c2cc1OC
inconclusive: [1] 0.0935 µM [cytotoxic, full curve, poor fit] | [14] 9.35 µM [rising, partial curve, poor fit] | [8] 13.2 µM [cytotoxic, partial curve, poor fit]
inactive: [9]
active: [2] 4.69 µM | [13] 1.32 µM | [5] 6.62 µM | [15] 4.18 µM | [11] 18.7 µM

Cc1cc(C(=O)N2CCN(c3cccc(Cl)c3)CC2)n(-c2ccccc2)n1
active: [1] 0.0118 µM | [16] 0.833 µM | [7] 7.43 µM | [9] 3.72 µM
inconclusive: [2] 14.8 µM [cytotoxic, partial curve, poor fit] | [14] 0.166 µM [cytotoxic, full curve, poor fit] | [8] 10.5 µM [cytotoxic, partial curve, poor fit]

CCNC(=O)c1cc2c(-c3cc(OCCN4CCCC4)c(Cl)cc3Cl)nc(N)nc2s1
inconclusive: [14] 37.2 µM [rising, partial curve, poor fit]
active: [1] 0.469 µM | [2] 2.35 µM | [16] 6.62 µM | [5] 1.66 µM | [6] 2.35 µM

CC1(C)S[C@H]2[C@H](NC(=O)[C@@H](N)c3ccc(O)cc3)C(=O)N2[C@@H]1C(=O)O
inconclusive: [2] 1.32 µM [cytotoxic, full curve, poor fit] | [4] 18.7 µM [cytotoxic, single point] | [5] 8.33 µM [cytotoxic, partial curve, poor fit] | [6] 23.5 µM [cytotoxic, single point] | [7] 4.18 µM [cytotoxic, full curve, poor fit] | [8] 37.2 µM [cytotoxic, single point] | [15] 3.32 µM [cytotoxic, partial curve, poor fit] | [11] 6.62 µM [cytotoxic, full curve, poor fit]
active: [1] 7.43 µM | [14] 0.296 µM
